Source: PubChem BioAssay AID1259405 (NCATS, 2018)
In all, the deposit lists about 50,000 reagents; shown is an unselected part. Of all reagents, about 4,000 (8%) were called active. 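Mouse siRNA library applied to hamster cells; one well for each siRNA.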 The numbers tell different reagents against one gene apart. Further read-outs or replicates are left out here.

Aim: 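Silenced genes that increase secreted GFP made by CHO cells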 (primary screen)
System: Chinese hamster CHO-K1 ovary cells with stable secreted eGFP expression
Knock-down reagent: single siRNA against mouse genes, 0.8 pmol siRNA per well (2 µl of 400 nM stock)
Time to read-out: 3 days
Read-out: 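Percent of the per-plate non-targeting control median for intracellular GFP per well by laser scanning cytometry and for cell viability by ATP luminescence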
Direction: GFP, % of control: higher = more GFP per well, higher productivity
Active means: 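Called active when intracellular GFP, relative to negative control, is at or above 120%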

GFP, % of control, by target gene and reagent
Banf1: #1 30 inactive; #2 47.9 inactive; #3 162 active
Or2y3: #1 50.8 inactive; #2 53.5 inactive; #3 45.4 inactive
Phgr1: #1 105 inactive; #2 70.9 inactive; #3 66.7 inactive
Pdk4: #1 68 inactive
Krit1: #1 67.9 inactive; #2 94.8 inactive; #3 57.2 inactive
Itih3: #1 108 inactive; #2 88.7 inactive; #3 75.8 inactive
Rasgef1c: #1 139 active; #2 109 inactive; #3 68.4 inactive
Smn1: #1 85.7 inactive; #2 29.2 inactive
Trim12c: #1 76 inactive; #2 109 inactive; #3 115 inactive
Itga6: #1 107 inactive; #2 89.5 inactive
Stx7: #1 108 inactive; #2 75.6 inactive
Cfc1: #1 80.3 inactive; #2 73.8 inactive; #3 87.3 inactive
Mcfd2: #1 127 active; #2 94.2 inactive; #3 55.5 inactive
Or1o3: #1 46.9 inactive; #2 86.6 inactive; #3 30.5 inactive
Chd4: #1 335 active; #2 107 inactive; #3 206 active; #4 273 active; #5 98.4 inactive; #6 243 active
Ntaq1: #1 151 active; #2 39.2 inactive; #3 73.3 inactive; #4 83.6 inactive; #5 66.5 inactive; #6 84.7 inactive
Hnmt: #1 85.1 inactive; #2 61.8 inactive; #3 70.8 inactive
Mrpl15: #1 59.7 inactive; #2 70.1 inactive; #3 96.7 inactive
Dusp10: #1 81.5 inactive; #2 94.9 inactive
Rad17: #1 57.6 inactive; #2 81.5 inactive; #3 79.7 inactive
Mphosph6: #1 54.1 inactive; #2 101 inactive; #3 69 inactive
Rasl10b: #1 122 active; #2 23.8 inactive; #3 72.5 inactive
Pik3c3: #1 89.1 inactive
Ntmt1: #1 89.5 inactive; #2 68.9 inactive; #3 67.8 inactive
Or2r2: #1 79.8 inactive; #2 79.6 inactive; #3 69.9 inactive
Acp2: #1 70.4 inactive; #2 54.8 inactive; #3 66.7 inactive
Srsf9: #1 92.3 inactive; #2 76.3 inactive
Gm5082: #1 74.9 inactive; #2 77.1 inactive; #3 107 inactive
Or5v1b: #1 68.5 inactive; #2 79.1 inactive; #3 81.2 inactive

Hits (from the list above):
GFP, % of control, by target gene and reagent
Banf1: #3 162 active
Rasgef1c: #1 139 active
Mcfd2: #1 127 active
Chd4: #1 335 active; #3 206 active; #4 273 active; #6 243 active
Ntaq1: #1 151 active
Rasl10b: #1 122 active
